Results as given in the supplement of paper PMC10849652.
Some of the results follow.

The chains behind the UniProt entries cited, without tags or fusion partners. Where a name states a change or a piece, a line headed by the entry shows the natural chain unless it says otherwise.
UniProt Q8IV38: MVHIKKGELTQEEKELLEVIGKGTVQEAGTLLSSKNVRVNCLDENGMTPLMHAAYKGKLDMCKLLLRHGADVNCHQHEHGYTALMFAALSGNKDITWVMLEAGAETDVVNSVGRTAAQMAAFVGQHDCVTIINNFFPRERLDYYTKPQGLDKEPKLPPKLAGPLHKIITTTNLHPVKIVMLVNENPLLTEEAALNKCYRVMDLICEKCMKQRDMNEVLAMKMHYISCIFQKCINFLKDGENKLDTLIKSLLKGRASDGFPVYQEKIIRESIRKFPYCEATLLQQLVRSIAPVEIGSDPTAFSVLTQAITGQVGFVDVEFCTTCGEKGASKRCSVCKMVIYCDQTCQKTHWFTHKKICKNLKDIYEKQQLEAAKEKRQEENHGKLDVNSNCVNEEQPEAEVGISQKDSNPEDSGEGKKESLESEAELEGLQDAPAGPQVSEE
UniProt P02654: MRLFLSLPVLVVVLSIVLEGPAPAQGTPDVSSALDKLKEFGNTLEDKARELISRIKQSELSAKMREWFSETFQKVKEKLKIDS
UniProt P08133: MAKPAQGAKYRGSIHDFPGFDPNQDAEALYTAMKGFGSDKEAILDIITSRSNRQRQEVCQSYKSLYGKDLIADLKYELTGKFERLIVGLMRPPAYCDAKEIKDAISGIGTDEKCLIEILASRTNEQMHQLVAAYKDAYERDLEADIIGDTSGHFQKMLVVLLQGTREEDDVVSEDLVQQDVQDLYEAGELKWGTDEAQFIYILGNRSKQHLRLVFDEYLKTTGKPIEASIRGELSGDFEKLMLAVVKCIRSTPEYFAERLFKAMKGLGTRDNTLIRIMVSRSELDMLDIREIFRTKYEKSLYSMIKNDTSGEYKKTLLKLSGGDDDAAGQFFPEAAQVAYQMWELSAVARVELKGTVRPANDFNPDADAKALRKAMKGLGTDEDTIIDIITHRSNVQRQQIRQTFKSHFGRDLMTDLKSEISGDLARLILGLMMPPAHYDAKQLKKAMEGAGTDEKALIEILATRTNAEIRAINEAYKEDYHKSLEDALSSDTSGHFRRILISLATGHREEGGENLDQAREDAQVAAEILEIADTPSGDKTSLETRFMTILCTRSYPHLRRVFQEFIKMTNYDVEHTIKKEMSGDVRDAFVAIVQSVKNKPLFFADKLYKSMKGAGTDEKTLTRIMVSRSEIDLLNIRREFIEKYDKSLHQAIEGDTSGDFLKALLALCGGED
UniProt P61204: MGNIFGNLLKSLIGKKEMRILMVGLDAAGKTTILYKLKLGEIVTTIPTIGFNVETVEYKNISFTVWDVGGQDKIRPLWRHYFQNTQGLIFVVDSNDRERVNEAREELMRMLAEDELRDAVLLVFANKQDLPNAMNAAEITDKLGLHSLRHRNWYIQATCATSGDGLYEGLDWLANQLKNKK
UniProt Q9P2R3: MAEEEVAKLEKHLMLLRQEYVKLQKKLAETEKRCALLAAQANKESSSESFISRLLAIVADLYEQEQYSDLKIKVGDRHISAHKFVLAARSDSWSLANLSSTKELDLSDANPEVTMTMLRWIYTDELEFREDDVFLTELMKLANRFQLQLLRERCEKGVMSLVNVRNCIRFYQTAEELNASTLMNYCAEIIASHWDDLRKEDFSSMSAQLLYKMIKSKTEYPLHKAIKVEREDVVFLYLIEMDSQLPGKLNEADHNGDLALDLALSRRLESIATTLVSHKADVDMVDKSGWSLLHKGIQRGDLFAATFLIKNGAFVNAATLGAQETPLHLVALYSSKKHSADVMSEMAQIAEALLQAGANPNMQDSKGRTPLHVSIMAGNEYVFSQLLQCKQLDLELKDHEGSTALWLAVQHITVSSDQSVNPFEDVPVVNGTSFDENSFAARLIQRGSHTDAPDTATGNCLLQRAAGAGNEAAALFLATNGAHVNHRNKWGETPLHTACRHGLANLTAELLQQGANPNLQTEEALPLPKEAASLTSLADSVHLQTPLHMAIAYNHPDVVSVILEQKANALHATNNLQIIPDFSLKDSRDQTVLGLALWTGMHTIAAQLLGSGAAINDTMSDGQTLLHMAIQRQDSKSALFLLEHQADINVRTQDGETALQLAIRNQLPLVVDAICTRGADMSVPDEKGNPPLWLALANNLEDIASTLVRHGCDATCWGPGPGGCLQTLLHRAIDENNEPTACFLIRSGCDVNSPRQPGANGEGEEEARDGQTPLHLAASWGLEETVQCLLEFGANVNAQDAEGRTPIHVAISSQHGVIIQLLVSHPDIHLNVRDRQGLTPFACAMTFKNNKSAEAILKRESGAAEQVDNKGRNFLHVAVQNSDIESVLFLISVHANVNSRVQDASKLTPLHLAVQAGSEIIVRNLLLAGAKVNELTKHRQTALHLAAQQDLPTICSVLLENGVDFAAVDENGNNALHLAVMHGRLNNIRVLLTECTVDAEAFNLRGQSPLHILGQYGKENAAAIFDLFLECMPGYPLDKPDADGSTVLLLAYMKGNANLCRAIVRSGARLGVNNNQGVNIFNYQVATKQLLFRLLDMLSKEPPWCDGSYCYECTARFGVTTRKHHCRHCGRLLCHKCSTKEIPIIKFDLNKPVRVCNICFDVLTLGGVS
UniProt P07355, whole entry, looked up: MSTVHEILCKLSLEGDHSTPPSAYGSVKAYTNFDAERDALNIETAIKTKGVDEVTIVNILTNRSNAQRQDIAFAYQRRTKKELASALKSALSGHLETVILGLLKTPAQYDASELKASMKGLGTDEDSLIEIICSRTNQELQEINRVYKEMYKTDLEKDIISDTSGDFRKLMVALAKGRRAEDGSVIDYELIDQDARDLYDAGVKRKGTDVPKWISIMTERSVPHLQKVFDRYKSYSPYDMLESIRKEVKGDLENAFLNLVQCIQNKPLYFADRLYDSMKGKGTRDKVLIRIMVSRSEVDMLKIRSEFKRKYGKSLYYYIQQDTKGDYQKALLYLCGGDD
UniProt Q8IWZ3: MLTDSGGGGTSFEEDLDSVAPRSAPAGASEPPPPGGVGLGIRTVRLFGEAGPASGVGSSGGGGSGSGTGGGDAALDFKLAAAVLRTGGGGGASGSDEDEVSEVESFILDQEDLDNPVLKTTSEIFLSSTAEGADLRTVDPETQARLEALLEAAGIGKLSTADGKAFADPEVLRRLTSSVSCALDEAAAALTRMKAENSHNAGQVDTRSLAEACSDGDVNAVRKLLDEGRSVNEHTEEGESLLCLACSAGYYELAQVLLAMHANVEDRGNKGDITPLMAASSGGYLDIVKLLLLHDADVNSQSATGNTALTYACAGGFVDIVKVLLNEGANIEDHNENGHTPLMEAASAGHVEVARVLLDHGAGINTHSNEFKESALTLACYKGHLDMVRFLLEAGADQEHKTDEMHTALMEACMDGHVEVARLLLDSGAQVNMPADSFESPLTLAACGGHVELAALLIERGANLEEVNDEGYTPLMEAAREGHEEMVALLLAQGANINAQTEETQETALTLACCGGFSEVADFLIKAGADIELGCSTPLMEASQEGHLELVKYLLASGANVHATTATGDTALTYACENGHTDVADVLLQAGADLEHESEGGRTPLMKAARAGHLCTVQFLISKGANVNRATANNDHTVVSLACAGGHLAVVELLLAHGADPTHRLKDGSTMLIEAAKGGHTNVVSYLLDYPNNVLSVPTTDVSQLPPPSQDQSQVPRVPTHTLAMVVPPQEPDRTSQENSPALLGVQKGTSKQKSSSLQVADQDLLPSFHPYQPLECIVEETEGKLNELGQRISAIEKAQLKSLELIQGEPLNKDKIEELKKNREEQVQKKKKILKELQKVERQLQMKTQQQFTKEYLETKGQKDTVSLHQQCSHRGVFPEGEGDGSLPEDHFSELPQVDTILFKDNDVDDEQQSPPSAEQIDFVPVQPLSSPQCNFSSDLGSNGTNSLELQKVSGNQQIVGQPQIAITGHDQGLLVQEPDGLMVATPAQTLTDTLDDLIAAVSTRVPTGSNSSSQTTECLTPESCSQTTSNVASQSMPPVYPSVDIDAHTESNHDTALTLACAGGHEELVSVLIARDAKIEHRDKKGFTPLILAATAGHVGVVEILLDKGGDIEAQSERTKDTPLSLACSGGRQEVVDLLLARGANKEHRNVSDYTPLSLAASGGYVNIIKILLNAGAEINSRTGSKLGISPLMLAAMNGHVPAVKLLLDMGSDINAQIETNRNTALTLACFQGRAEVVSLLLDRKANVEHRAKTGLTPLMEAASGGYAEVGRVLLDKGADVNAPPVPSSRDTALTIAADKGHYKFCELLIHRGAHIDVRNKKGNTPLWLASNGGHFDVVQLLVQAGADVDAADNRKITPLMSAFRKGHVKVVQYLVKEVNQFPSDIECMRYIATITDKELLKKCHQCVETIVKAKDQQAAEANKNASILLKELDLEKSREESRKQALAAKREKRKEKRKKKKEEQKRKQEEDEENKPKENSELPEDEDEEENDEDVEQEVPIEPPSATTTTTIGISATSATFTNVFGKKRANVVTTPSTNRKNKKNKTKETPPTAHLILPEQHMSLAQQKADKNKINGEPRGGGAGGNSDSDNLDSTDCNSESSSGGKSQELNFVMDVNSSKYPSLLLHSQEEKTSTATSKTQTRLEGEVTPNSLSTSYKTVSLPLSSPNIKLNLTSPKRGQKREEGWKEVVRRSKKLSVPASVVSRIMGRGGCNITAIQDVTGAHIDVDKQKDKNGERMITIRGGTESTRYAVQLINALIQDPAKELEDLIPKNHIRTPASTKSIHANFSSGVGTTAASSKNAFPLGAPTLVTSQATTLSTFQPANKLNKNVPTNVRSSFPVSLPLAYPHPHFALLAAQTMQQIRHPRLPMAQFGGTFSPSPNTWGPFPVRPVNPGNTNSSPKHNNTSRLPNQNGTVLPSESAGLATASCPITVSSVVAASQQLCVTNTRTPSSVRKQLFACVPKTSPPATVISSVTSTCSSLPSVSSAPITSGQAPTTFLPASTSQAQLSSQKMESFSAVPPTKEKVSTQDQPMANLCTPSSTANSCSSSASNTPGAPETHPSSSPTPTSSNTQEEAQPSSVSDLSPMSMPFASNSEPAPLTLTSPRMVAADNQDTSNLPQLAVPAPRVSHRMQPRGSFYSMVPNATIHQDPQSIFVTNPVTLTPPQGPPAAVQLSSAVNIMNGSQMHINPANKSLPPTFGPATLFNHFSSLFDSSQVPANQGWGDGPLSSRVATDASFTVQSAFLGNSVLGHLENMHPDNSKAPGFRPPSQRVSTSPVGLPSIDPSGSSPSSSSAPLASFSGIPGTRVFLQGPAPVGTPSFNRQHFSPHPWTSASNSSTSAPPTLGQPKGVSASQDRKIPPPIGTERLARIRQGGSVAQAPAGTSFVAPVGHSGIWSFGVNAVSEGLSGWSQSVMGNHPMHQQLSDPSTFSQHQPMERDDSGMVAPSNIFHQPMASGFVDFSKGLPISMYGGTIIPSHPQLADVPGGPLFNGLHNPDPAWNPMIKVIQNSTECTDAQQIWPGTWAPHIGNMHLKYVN
UniProt Q92572: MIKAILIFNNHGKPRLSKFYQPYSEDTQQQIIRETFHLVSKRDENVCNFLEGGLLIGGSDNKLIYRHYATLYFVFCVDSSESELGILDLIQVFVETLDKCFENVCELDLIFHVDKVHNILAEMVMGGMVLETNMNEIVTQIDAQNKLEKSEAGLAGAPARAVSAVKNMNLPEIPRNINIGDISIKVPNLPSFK
UniProt Q4KMQ2: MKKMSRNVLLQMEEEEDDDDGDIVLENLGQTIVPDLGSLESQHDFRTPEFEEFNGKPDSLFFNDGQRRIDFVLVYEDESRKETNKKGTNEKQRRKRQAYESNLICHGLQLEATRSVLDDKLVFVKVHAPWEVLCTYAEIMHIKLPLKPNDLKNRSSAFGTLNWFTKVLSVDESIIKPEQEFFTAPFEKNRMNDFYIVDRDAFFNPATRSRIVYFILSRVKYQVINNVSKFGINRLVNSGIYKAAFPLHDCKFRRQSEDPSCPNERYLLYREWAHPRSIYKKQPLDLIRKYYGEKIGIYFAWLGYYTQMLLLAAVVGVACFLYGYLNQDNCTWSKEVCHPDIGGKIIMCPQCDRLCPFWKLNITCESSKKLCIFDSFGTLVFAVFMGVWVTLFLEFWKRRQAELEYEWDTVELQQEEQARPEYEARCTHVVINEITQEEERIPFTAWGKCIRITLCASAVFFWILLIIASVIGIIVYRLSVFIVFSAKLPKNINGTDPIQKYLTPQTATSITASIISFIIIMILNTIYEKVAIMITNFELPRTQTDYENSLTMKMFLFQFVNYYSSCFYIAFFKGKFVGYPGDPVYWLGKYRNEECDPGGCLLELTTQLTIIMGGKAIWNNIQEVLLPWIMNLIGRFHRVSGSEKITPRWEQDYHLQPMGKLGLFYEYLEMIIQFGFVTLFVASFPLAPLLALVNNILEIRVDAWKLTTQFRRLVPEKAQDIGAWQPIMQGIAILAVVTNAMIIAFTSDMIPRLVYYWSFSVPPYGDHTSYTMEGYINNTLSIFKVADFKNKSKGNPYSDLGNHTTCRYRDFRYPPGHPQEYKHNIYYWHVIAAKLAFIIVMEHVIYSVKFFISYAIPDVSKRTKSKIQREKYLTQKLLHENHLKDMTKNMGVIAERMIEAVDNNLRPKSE

Compound: CC(C)(C)Cn1c(N)nc2ccc(-c3[nH]c(C(C)(C)C)nc3-c3ccc(F)cc3)nc21 [ralimetinib]
Assay: log2 fold change, soluble protein after heating vs DMSO (PISA); higher = thermal stabilisation; K562 cells, 10 uM, 30 min; active = over 0.2 and 3.5 SD of the protein, either way, in both replicates (recomputed)
Outline: (§1)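 K562 cells at 2×10^6 cells/mL were exposed to 10 μM compound for 30 min, then aliquots were heated for 3 min across 48°C-58°C, pooled, and extracted in PBS containing 0.5% NP-40 at 4°C. The supernatant after 21,000xg for 90 min was taken as soluble protein and measured by TMTpro 16plex LC-MS/MS with channel sums equalised. Thermal stability is reported relative to control samples, with values from duplicates. Fold changes are given on a log2 scale.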

log2 fold change, inactive:
ANXA11 (UniProt P50995) -0.003
ARF1 (UniProt P84077) -0.063
ARCN1 (UniProt P48444) -0.016
AP1M1 (UniProt Q9BXS5) -0.002
ANTKMT (UniProt Q9BQD7) -0.204
ANK3 (UniProt Q12955) -0.036
ANKMY2 (UniProt Q8IV38) 0.049
ANAPC16 (UniProt Q96DE5) 0.019
ANKRD54 (UniProt Q6NXT1) 0.027
ANP32B (UniProt Q92688) -0.051
ARIH1 (UniProt Q9Y4X5) -0.061
APOC1 (UniProt P02654) -0.037
ANXA6 (UniProt P08133) -0.018
ARF3 (UniProt P61204) -0.021
ARHGDIA (UniProt P52565) -0.021
ARF5 (UniProt P84085) 0.01
ANKFY1 isoform 4 (UniProt Q9P2R3) -0.044
API5 isoform 2 (UniProt Q9BZZ5) -0.018
ANXA4 (UniProt P09525) -0.018
ARHGAP18 (UniProt Q8N392) -0.008
ANXA2 isoform 2 (UniProt P07355) 0.007
ARFGAP3 (UniProt Q9NP61) 0.033
APEH (UniProt P13798) -0.036
ARHGEF2 (UniProt Q92974) 0.219
APOBEC3C (UniProt Q9NRW3) 0.117
API5 (UniProt Q9BZZ5) -0.014
ANKHD1 isoform 6 (UniProt Q8IWZ3) 0.192
AP3S1 (UniProt Q92572) 0.012
ANO6 isoform 2 (UniProt Q4KMQ2) -0.025
APMAP (UniProt Q9HDC9) -0.07
APOO (UniProt Q9BUR5) -0.026
ARHGAP45 isoform 2 (UniProt Q92619) -0.047

Compound: CC(C)(O)CC(=O)NCCn1ccc2ncnc(Nc3ccc(Oc4cccc(C(F)(F)F)c4)c(Cl)c3)c21
Assay: as above
Outline: as §1

log2 fold change, inactive:
ANXA11 (UniProt P50995) -0.08
ARF1 (UniProt P84077) 0.125
ARCN1 (UniProt P48444) 0.03
AP1M1 (UniProt Q9BXS5) -0.021
ANTKMT (UniProt Q9BQD7) -0.051
ANK3 (UniProt Q12955) 0.032
ANKMY2 (UniProt Q8IV38) -0.042
ANAPC16 (UniProt Q96DE5) -0.052
ANKRD54 (UniProt Q6NXT1) -0.063
ANP32B (UniProt Q92688) 0.013
ARIH1 (UniProt Q9Y4X5) -0.016
APOC1 (UniProt P02654) -0.111
ANXA6 (UniProt P08133) -0.04
ARF3 (UniProt P61204) -0.018
ARHGDIA (UniProt P52565) -0.039
ARF5 (UniProt P84085) -0.019
ANKFY1 isoform 4 (UniProt Q9P2R3) -0.002
API5 isoform 2 (UniProt Q9BZZ5) 0.085
ANXA4 (UniProt P09525) -0.097
ARHGAP18 (UniProt Q8N392) -0.24
ANXA2 isoform 2 (UniProt P07355) -0.012
ARFGAP3 (UniProt Q9NP61) -0.025
APEH (UniProt P13798) 0.001
ARHGEF2 (UniProt Q92974) 0.003
APOBEC3C (UniProt Q9NRW3) 0.064
API5 (UniProt Q9BZZ5) -0.023
ANKHD1 isoform 6 (UniProt Q8IWZ3) -0.017
AP3S1 (UniProt Q92572) -0.038
ANO6 isoform 2 (UniProt Q4KMQ2) -0.089
APMAP (UniProt Q9HDC9) 0.026
APOO (UniProt Q9BUR5) -0.058
ARHGAP45 isoform 2 (UniProt Q92619) 0.068

Compound: CC(C)C1=C2N=C(C=C(N2N=C1)NCC3=CC=CC=C3)NCCCCCCN
Assay: as above
Outline: as §1

log2 fold change, inactive:
ANXA11 (UniProt P50995) -0.037
ARF1 (UniProt P84077) 0.065
ARCN1 (UniProt P48444) 0.048
AP1M1 (UniProt Q9BXS5) -0.001
ANTKMT (UniProt Q9BQD7) -0.108
ANK3 (UniProt Q12955) -0.053
ANKMY2 (UniProt Q8IV38) -0.028
ANAPC16 (UniProt Q96DE5) -0.041
ANKRD54 (UniProt Q6NXT1) -0.005
ANP32B (UniProt Q92688) -0.061
ARIH1 (UniProt Q9Y4X5) 0.034
APOC1 (UniProt P02654) 0.003
ANXA6 (UniProt P08133) -0.055
ARF3 (UniProt P61204) 0.075
ARHGDIA (UniProt P52565) 0.104
ARF5 (UniProt P84085) 0.061
ANKFY1 isoform 4 (UniProt Q9P2R3) -0.093
API5 isoform 2 (UniProt Q9BZZ5) 0.07
ANXA4 (UniProt P09525) -0.089
ARHGAP18 (UniProt Q8N392) -0.108
ANXA2 isoform 2 (UniProt P07355) -0.009
ARFGAP3 (UniProt Q9NP61) 0.066
APEH (UniProt P13798) 0.048
ARHGEF2 (UniProt Q92974) -0.317
APOBEC3C (UniProt Q9NRW3) -0.006
API5 (UniProt Q9BZZ5) 0.031
ANKHD1 isoform 6 (UniProt Q8IWZ3) -0.394
AP3S1 (UniProt Q92572) -0.038
ANO6 isoform 2 (UniProt Q4KMQ2) -0.026
APMAP (UniProt Q9HDC9) 0.025
APOO (UniProt Q9BUR5) -0.053
ARHGAP45 isoform 2 (UniProt Q92619) 0.036
